Measurements: patent US10483096B2, “Device and method for analysis of biofluids by ion generation using wetted porous material” (Indiana University Research and Technology Corporation, priority 2015, dated 2019)

Assays:
[1] = Drug binding to plasma fractionation membrane (analyte:IS ratio, membrane-fractionated vs centrifuged plasma, paper-spray MS); set-up: key: N.S.: Not significant. p < 0.05; settings: Cytosep® membrane; blood spiked with 500 ng/mL; N = 10
[2] = as above; settings: Vivid™ asymmetric polysulfone membrane; blood spiked with 500 ng/mL; N = 10

## CN1C(=O)CN=C(c2ccccc2)c2cc(Cl)ccc21 [diazepam]
[1]
  % drug binding by membrane: N.S.
[2]
  % drug binding by membrane: 58%

## CC(C)NCC(O)COc1ccc(CC(N)=O)cc1 (centres unmarked) [atenolol]
[1]
  % drug binding by membrane: N.S.
[2]
  % drug binding by membrane: 57%

## Cc1nnc2n1-c1ccc(Cl)cc1C(c1ccccc1)=NC2 [alprazolam]
[1]
  % drug binding by membrane: N.S.^b
[2]
  % drug binding by membrane: 80%

## NC(=O)N1c2ccccc2C=Cc2ccccc21 [carbamazepine]
[1]
  % drug binding by membrane: N.S.
[2]
  % drug binding by membrane: 78%
